We go through 39 sequences from article PMC7862700.

This is one part of the list. The exact form of the protein is not confirmed.

The assay concerns the target T1, ETV4 (UniProt P43268).
T1 sequence: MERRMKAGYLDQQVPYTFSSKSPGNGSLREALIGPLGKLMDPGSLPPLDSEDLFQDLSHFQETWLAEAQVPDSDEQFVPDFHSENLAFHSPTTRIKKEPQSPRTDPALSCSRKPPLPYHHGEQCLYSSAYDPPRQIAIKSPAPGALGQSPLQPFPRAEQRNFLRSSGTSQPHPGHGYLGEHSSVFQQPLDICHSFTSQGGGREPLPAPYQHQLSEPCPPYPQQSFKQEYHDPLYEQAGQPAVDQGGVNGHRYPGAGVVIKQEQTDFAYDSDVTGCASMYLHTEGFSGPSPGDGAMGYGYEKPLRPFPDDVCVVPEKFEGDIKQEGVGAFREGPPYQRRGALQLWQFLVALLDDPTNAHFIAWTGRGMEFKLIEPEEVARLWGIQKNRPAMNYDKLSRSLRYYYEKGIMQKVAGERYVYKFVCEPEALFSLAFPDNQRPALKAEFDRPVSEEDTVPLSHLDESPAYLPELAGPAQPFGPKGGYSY
Kind of assay: DAPPL (digital affinity profiling via proximity ligation, sequencing). The note with it: 10 mM Tris-HCl pH 7.5, 50 mM NaCl, 1 mM DTT, 4% glycerol, room temperature, 30 min; GST-TFs on glutathione beads, 16-mer random dsDNA library, 0.1% …; high values mean tight binding; double strand, one strand shown; scale: fold enrichment (6-mer frequency, TF over GST control).
Take CCGGCA: the binding signal turned out to be 1.44.
Turning to GATATA, the binding signal amounted to 1.04.
The sequence ATTTCA came in with a binding signal of 1.3.
As to AATAGA, the binding signal was 1.09.
With TGCGTA, the binding signal was 1.19.
Sequence GAAATG came in with a binding signal of 1.61.
The sequence ACTAAC came in with a binding signal of 1.33.
Regarding GTACTC, the binding signal came to 1.21.
The sequence GTATTA gave a binding signal of 1.03.
As to CCATAT, the binding signal worked out at 1.25.
The result for TGGTTT reads 1.69; that for GTACTT, 2.39.
Turning to TAATCT, the binding signal was found to be 1.45.
The result for CTACGA reads 1.33; that for GCGATG, 1.25; that for TCCTCT, 1.78.
TTTCCT yielded a binding signal of 2.32.
Regarding AATAAG, the binding signal is 1.21.
Regarding GTTGCA, the binding signal is 1.12.
Take GTTCCA: the binding signal was 1.14.
The result for CTCTGC reads 1.67.
Consider CAAAAA, for which the binding signal stood at 1.11.
The sequence TTTGGC registered a binding signal of 1.36.
CATATT yielded a binding signal of 1.24.
TACGAT displayed a binding signal of 1.05.
To CACACT belongs 1.26.
In turn, TGACCT displayed a binding signal of 1.8.
CTAAAC showed a binding signal of 1.24.
On to GCTGTA, for which the binding signal was found to be 1.07.
The result for TTTAAA reads 1.15; that for AAAAGA, 1.12; that for TATGGC, 1.3.
In turn, AGATCC displayed a binding signal of 1.14.
For CCTGCA, the binding signal stood at 1.22.
TACTTG registered a binding signal of 1.4.
The result for TCATGC reads 1.13; that for CGTTAA, 1.13.
To TACTTC belongs 4.3; to TTGACC, 1.51.
